Results are given in words; binding and its absence hold for the method and conditions named. For part of these data: In cells and extracts the contact can be indirect. Some results given as binding are weak or reduced against the parent protein; the word gives no strength. Where a sequence is shown, tags or fusion partners need not be part of it.
Experiments:
[1] = biological target: T1, human WLS-Flag (BacMam-WLS-Flag plasmid) expressed in HeLa cells (human) (UniProt Q5T9L3); assay: co-IP; HeLa cells co-transfected with BacMam-Wnt3A-10xhis and BacMam-WLS-Flag (total 1 µg at 1:1, total 2.5 µg at 1:1, or total 2.5 µg at 4:1 Wnt3a:WLS DNA); lysis in 25 mM Tris-HCl pH 8.0, 150 mM NaCl, 1% Triton X-100; anti-Flag resin; washes with 300 mM NaCl, 0.1% Triton X-100; western blotting with anti-Wnt3a and anti-WLS
T1 sequence: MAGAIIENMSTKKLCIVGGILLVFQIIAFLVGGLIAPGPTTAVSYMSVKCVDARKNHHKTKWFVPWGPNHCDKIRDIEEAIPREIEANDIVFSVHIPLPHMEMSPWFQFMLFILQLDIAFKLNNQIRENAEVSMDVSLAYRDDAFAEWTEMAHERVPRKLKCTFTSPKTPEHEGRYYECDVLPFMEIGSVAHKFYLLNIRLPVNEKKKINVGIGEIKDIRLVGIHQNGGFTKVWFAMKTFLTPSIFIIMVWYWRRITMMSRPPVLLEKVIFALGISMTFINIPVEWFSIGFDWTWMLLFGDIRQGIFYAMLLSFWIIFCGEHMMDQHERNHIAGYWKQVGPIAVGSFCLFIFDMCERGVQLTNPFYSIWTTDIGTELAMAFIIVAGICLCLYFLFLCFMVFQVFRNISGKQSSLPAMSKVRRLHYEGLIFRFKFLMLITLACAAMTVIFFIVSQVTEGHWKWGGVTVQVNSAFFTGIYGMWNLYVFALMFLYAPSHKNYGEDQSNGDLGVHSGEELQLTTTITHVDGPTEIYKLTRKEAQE

Protein sequences, listed by entry. Tags and fused reporters are not part of them. Lines headed by an entry give the natural chain unless they say otherwise; changes in a name come on top. Chains listed by the source or under a name are the forms on record and can include a tag or linker. Residues count along the entry.
human Wnt3a, C-terminal 10xhis tag, co-expressed with WLS in HEK293S GnTI- cells (P56704, residues 19-352): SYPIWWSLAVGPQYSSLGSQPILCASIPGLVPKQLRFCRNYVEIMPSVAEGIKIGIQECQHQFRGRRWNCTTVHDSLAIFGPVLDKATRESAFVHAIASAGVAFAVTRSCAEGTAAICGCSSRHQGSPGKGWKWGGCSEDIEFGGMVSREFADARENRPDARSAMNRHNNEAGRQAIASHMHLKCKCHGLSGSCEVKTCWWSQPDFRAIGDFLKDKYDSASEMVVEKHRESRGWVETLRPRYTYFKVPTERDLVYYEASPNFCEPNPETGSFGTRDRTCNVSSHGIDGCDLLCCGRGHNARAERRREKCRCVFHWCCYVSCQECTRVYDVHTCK
human Wnt3a K215A/W218A mutant (Hairpin-1), 10xhis, expressed in HeLa cells (P56704, form named): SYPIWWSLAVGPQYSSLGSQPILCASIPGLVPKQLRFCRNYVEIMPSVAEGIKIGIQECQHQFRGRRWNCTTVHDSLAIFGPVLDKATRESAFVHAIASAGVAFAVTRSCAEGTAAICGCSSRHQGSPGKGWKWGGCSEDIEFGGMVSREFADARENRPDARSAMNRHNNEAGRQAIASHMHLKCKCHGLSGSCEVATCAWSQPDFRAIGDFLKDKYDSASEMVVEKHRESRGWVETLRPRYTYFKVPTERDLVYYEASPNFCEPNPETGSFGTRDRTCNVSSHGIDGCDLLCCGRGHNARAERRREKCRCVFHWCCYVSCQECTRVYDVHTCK
human Wnt3a W333A mutant (Hairpin-2), 10xhis, expressed in HeLa cells (P56704, form named): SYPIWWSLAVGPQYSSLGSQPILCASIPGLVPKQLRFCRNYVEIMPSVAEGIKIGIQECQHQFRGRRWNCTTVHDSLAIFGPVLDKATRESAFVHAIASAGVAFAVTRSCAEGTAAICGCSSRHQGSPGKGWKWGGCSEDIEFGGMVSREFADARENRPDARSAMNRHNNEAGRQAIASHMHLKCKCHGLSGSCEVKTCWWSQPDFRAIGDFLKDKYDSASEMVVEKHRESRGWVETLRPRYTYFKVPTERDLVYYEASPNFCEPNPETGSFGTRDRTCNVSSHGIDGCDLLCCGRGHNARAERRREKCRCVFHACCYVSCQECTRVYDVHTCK
human Wnt3a S209A mutant, co-expressed with WLS and purified (P56704, form named): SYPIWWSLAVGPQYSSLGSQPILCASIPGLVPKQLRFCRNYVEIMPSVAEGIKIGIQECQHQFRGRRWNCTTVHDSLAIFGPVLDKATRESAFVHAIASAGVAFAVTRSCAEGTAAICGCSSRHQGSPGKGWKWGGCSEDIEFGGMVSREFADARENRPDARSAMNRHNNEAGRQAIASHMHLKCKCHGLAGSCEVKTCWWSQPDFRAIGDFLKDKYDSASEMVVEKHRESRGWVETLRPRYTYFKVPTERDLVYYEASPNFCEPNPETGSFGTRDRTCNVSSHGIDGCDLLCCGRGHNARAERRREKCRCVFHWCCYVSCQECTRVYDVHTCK

[2] = biological target: T2, human Wntless (WLS), C-terminal Flag tag, co-expressed with Wnt3a in HEK293S GnTI- cells (human) (UniProt Q5T9L3); assay: SEC; Wnt3a S209A co-expressed with WLS, complex purified and run on gel filtration; both purified
T2 sequence: T1 sequence

[3] = biological target: T2, human Wntless (WLS), C-terminal Flag tag, co-expressed with Wnt3a in HEK293S GnTI- cells (human); assay: cryo-EM structure; WLS-Wnt3a complex co-expressed and purified, 0.19 mg/ml, in 25 mM Tris pH 8.0, 150 mM NaCl, 0.03% GDN; graphene oxide coated grids; Titan Krios 300 kV; both purified

Substance | binding [1] | other results
human Wnt3a S209A mutant (Hairpin-1, palmitoleoylation site), 10xhis, expressed in HeLa cells (from UniProt P56704 19-352) (ligand) | binds | –
human Wnt3a S209A mutant, co-expressed with WLS and purified (from UniProt P56704 19-352) (ligand) | – | binding [2]: binds
human Wnt3a, C-terminal 10xhis tag, co-expressed with WLS in HEK293S GnTI- cells (from UniProt P56704 19-352) (ligand) | – | binding [3]: binds

More lines, main results first:

binding [1] | Substance | other results
binds weakly | human Wnt3a K215A/W218A mutant (Hairpin-1), 10xhis, expressed in HeLa cells (from UniProt P56704 19-352) (ligand) | –
binds | human Wnt3a-10xhis wild type (BacMam-Wnt3A-10xhis plasmid) expressed in HeLa cells (from UniProt P56704 19-352) (ligand) | –
binds | human Wnt3a W333A mutant (Hairpin-2), 10xhis, expressed in HeLa cells (from UniProt P56704 19-352) (ligand) | –
